Hit rate of the full screen: of about 52,000 sequences, about 210 (0.4%) were called active.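 The calls were made as follows: active = gene whose silencing raises cell survival under the drug, median off-target-corrected z-score across its silencing RNAs 2 or more; inactive = the rest.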 Some of the results follow.

The nature of this test: Resistance to Poly (ADP-Ribose) Polymerase inhibitor: Gene Identification via Genome-wide siRNA Screen. The settings on record: mouse BRCA2 R2336H ES cells, olaparib, CellTiter-Glo viability; active compounds read high. The gist of the method: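 Mouse BRCA2 R2336H ES cells were reverse-transfected with siRNA (20 nM final), treated at 48 h with 500 nM olaparib, and read by CellTiter-Glo after 72 h. Scores: MAD-based z per siRNA, median per gene, seed off-target correction.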
As to CGAGCUCAGGUGAGAAAUUTT against Pfpl, the z-score is inactive: 2.09.

Regarding CGUGACUCGUUGUUUCUGGTT against Fyn, the z-score is inactive: 0.365.

In the case of GGCCGACCCGUUUUCUUUUTT against Nap1l4, the z-score was inactive: 0.898.

GGAUUUGCAUAUGUUCAAUTT against Fusip1: the z-score was inactive: 0.164.

As to GGAACUGAUGGAGAAGCUATT against Tpcn2, the z-score is inactive: 0.428.

With GGAGUUUUGUAUGGUGAAATT against Cd8b, the z-score was inactive: -2.01.

GCACCUGGUAAGGUCAUUCTT against Olfr545: the z-score is inactive: -0.743.

“GGAGUAUCUAACAUCUACUTT against 5930405J04Rik”: the z-score was inactive: -0.0646.

Regarding GGGAACCUACGAGGAUUAUTT against Myl6, the z-score is inactive: 2.04.

GCUCUUCUCGCAUUCCUAUTT against Gpc2: the z-score is inactive: -0.68.

“CGUACUUUAGGCAACCUAATT against 4930403J22Rik”: the z-score is inactive: -0.193.

Regarding GGACAUGAUCGACGACUACTT against Zfyve28, the z-score is inactive: -1.11.

For GGUGUGAGAUCGAAUCAGATT against Arhgef18, the z-score was inactive: -0.136.

GGCCAUGUUGCAUCAGUUGTT against Kif27: the z-score is inactive: 0.0542.

On to “CCUUGACUCGUAAAUACUUTT against 2400003C14Rik”, for which the z-score is inactive: -1.3.

Consider “GGCGCGAAGUGUGAAUUUCTT against 3000002B06Rik”, for which the z-score is inactive: 0.671.

Consider “GGAUGACAAGACAUCACUUTT against 1300010K09Rik”, for which the z-score is inactive: 0.185.

As to GGCUGUUCGCUGCUACGAATT against Utx, the z-score is inactive: -0.26.

With CCCAAUGCAUCUCUGCUCATT against AI987662, the z-score is inactive: -0.682.

As for CCCUGGUACAUUUCACGUCTT against LOC387334, the z-score was inactive: 0.736.

For GGAUGAUCUCUACAGUAUATT against Cckar, the z-score was inactive: 0.669.

Regarding “GGUCAUCAGCUUGUAACCATT against 2010311D03Rik”, the z-score was inactive: 0.0946.

On to GCUUACCUUGGACAAAUGUTT against Hiat1, for which the z-score is inactive: 1.14.

Consider GGACAAAGCUAUUGGGAUUTT against Olfr402, for which the z-score is inactive: -1.84.

With CGUAGACUGAUAUAGCAAUTT against Irf5, the z-score was inactive: 0.31.

Turning to “CGAGUAUUUUGAAAUCCUGTT against 5430419D17Rik”, the z-score was inactive: -0.0321.

With GCCUUUGAGGUUAUGAUCATT against Klk7, the z-score was inactive: 2.54.

Regarding CCUACAUUGAUCAUCUUUATT against Olfr901, the z-score was inactive: 1.05.

With “GCGUGAGUCCCAGAAGCUUTT against 2410018L13Rik”, the z-score is inactive: -0.857.

On to GGGACCACGUCACUCUUAATT against Rab6b, for which the z-score is inactive: 0.0925.

GGGCAACGAGCUGUUCAAATT against AW538196: the z-score is inactive: 0.223.

Consider GGACAAAAACAAGAUCCUCTT against Hspa2, for which the z-score is inactive: 2.78.

In the case of “GGUUAAGAUUCCAGAGCCATT against 9230112O05Rik”, the z-score is inactive: -0.723.

With GCACAUGCACUUCUCACUUTT against Olfr223, the z-score is inactive: -0.3.

For GCCUAUUCUAUCGAUAACCTT against Cdh23, the z-score is inactive: 0.881.

Consider GGGAAAUGUUGAACAUAUCTT against Lap3, for which the z-score was inactive: -0.259.

For CCCAUCUCCUUAAAGUCAATT against Ripk3, the z-score is inactive: 0.792.

As to GCUAAAUUUACUUGUAUGGTT against Mcp, the z-score was inactive: -0.329.

For ACAAAUCACACGUGUUAGUTT against LOC384806, the z-score is inactive: 0.756.

Regarding CCUGGACCCAUUAUUUGCCTT against Slc35a2, the z-score was inactive: 0.186.

On to GGAUGAAGACGGAUUCCUCTT against Map1lc3a, for which the z-score is inactive: 1.41.

With GGGUUUUUUUAACUGCUUUTT against Efemp1, the z-score is inactive: 0.198.

Regarding GGUUCAGCAAGAAGAAUCATT against Cyp3a13, the z-score was inactive: -0.675.

On to GGUCUUCUCCCAAAUAAAUTT against Lcmt1, for which the z-score was inactive: 0.155.

With GGCUUUGGAAGUAUCUUUGTT against Pcsk7, the z-score is inactive: -1.37.

As for CCAUUCUUGGAUAGACAUATT against Pilrb, the z-score is inactive: -0.119.

Take GUGAAGAGAAGGCUUGAGUTT against Ifna11: the z-score is inactive: 0.922.

Turning to “CCUGCCAAUUUGUUUUUUGTT against 2900054P12Rik”, the z-score is inactive: -0.0695.

Take GAGAUCUUACCCAGCAGAUTT against Ifna4: the z-score was inactive: -1.22.

For the sequence “CGGUUACCACCUCACAUUCTT against 4933421H10Rik”, the z-score was inactive: 0.601.

As to “GGGUUUGAGAAUUUGAAGCTT against 4930435C18Rik”, the z-score is inactive: 1.31.

GGAUACAGUUUCUGAAAUCTT against Wbscr14: the z-score is inactive: 0.129.

Take GGAUGCUCACCUUCAAAUUTT against Il2: the z-score is inactive: -1.16.

Take GGUUCUCCUGAUUUGUUUATT against Sdhc: the z-score was inactive: -0.591.

Regarding GGUUUGUUUCCUGACAUUATT against Sh3gl3, the z-score is inactive: 0.232.

Turning to GGACUUUGACCCGUACUAUTT against Scn8a, the z-score was inactive: -0.352.

As for GGGUAUUUCCUGGUGGAUUTT against Mrps6, the z-score was inactive: -0.573.

GGGAACUUUCCUCAAGUCUTT against Phactr3: the z-score is inactive: 1.38.

Take CGACUGUCAGAUUACAACATT against Ubl4: the z-score is inactive: -1.52.

Consider GGUGUCUGUGCCUAUCAUCTT against Slc34a3, for which the z-score was inactive: 0.464.

For the sequence CCCUCAUUCUCUAGCGUGATT against H2-K1, the z-score was inactive: -0.105.

For GGCUAAAUGGGAAACCUGGTT against Cdkn2b, the z-score was inactive: -0.298.

Regarding GGCAACUUCAAGUCCAUAUTT against Pnma3, the z-score was inactive: 1.72.

Take GCCCAAACUGCUCUACUGCTT against Fgf1: the z-score was inactive: 1.43.

Consider GCACAGGAAACAAUUGAUATT against Stxbp4, for which the z-score was inactive: 0.117.

As to CCACGAUCAAGGAGAAUGUTT against Apoa4, the z-score is inactive: 1.11.

On to CCCAUGCUUGGAAUAAUUATT against Man1a, for which the z-score was inactive: -0.351.

Consider CCAGUUUGUACAUAGUGUATT against Rab35, for which the z-score was inactive: 2.03.

Turning to GCUAGUGAAAAAGAUCGACTT against Kcnn2, the z-score is inactive: 0.557.

Consider GGAGUUAGGCUGUAGAAGUTT against Dpysl2, for which the z-score is inactive: 0.156.

In the case of GGCUGAUUCUCCUUCUACCTT against Solh, the z-score is inactive: 1.81.

As to CCAUGGAGAAUCAUGACAGTT against Slfn1, the z-score is inactive: 0.281.

Take GCUUUGGAUCAUUCAGACCTT against Cugbp2: the z-score is inactive: -1.04.

On to GGCUGUGAAGAAAUACCACTT against Lcp2, for which the z-score was inactive: 0.153.

Turning to GGAUAUUCUUUCCAGGCUATT against Fanca, the z-score is inactive: -0.885.

As for GCAAUUUCGUGUGAGAGACTT against Rp2h, the z-score was inactive: -0.396.

Consider GUAACUGUCACCCAGAGAATT against Defb10, for which the z-score is inactive: 0.388.

Turning to GGCCAAGCAUCCUGAACAATT against B3galt6, the z-score was inactive: -0.672.

Consider CCUUUCCUAACUUGAUCACTT against Cbr2, for which the z-score was inactive: 0.242.

As to GGCUAUGGCAGUUAUCAAATT against Eif2s1, the z-score is inactive: -1.59.

In the case of CGGUCCACAUGAUCAUUCCTT against Dlgh2, the z-score is inactive: 0.267.

Turning to CUUUUACACCAUCAUGACGTT against Mrgpra5, the z-score was inactive: -0.487.

Turning to “GGAGACCUUAAAAGAACAUTT against 2310042L06Rik”, the z-score was inactive: 0.267.

Regarding GGAUCCUGAAACAGUUCAATT against Atm, the z-score is inactive: 0.389.

As for “GGUAAUUUGUAAGGAACCCTT against 4921503C21Rik”, the z-score was inactive: -0.0422.

As to GCGCAGGAUGAGAAGUUCUTT against Slc43a3, the z-score was inactive: -0.657.

In the case of “CCAAAUGGAGGAGAUUAGCTT against 4930517G15Rik”, the z-score is inactive: 0.223.

For GGAGCACAGGUCUAUGAACTT against Neu4, the z-score is inactive: 2.49.

On to GGCAGCUAACAAGACAUGUTT against Vegfc, for which the z-score is inactive: 1.32.

Turning to CCUCAUUUCAAGACUGUUATT against Stk6, the z-score was inactive: -0.436.

With GCCCAUCUUCCUAGUGUUUTT against Atp6v0b, the z-score was inactive: 0.209.

Take GCGAACUGUCCAAAACCAATT against Nr5a2: the z-score was inactive: -0.341.

On to UGCCGUAGGACUCAUCGGUTT against Olfr151, for which the z-score is inactive: 0.948.

For GGACCAAGCUGUGUACUCUTT against Olfr346, the z-score is inactive: 1.27.

For CCAGACAUGAUACUCCGGCTT against Stk22c, the z-score was inactive: 0.255.

Regarding GGUGAUGACGAAGGAAUCCTT against Zfpm2, the z-score is inactive: 1.17.

As to GCAAGAUCCAGCCCUAUCATT against Dub2, the z-score is inactive: -0.118.

For the sequence GCUGCCUAUUUACUGAUCCTT against Chrm3, the z-score was inactive: 1.24.

In the case of GCAAGUACAACCAUUGGUUTT against Bcmo1, the z-score was inactive: 0.311.

Take CCAUCACUACACGAAAUUGTT against Fgf12: the z-score is inactive: -0.0505.

Take GGGCAGGAUUCAGGGAACATT against Ntrk3: the z-score is inactive: 0.906.

For the sequence GCCCAAGCGAUCUUUGCAUTT against Ltap, the z-score was inactive: -0.325.

Turning to “CGAGAUAUUCGUGGACUAUTT against 6330548G22Rik”, the z-score is inactive: -1.37.

Regarding CAACUCUCUUGCUCAGACATT against Olfr814, the z-score is inactive: -1.12.

As for GCGCAACUCCAUGAGGAGATT against Kcnj8, the z-score was inactive: -0.0935.

The values above are taken from PubChem BioAssay AID1347423 (Functional Genomics Laboratory (NCATS/FGL), 2020).
